Data: PMC7333352
No constants are given. Whether binding was seen depends on the method and setting. In cells and extracts the contact can be indirect. Here binding means that the protein was enriched with, or labelled near, the bait; the list need not be complete.

B1: SGIV ORF132 (VP132), expressed by the infecting virus (protein, UniProt Q5YFD3 1-275)
chain: MHSVKSLLVDISKWELNASAQEYVAHVETAESPATMGKRPKVKRVSKRPVCELLPPYVDESIRRSVGSIYHAHWPKDRLRPTVEKQAVLVGLITRSNPELDVNELVKTMRVKCDRLKKGAREAEKVSHLLPAPWAQPAWSKEIPDMSKALKVLGESEGRKWACWAQSVTCIGVAICSKQHEKPFRSVWKDTLEKLRRYAPAALLRSEYGSVFFTLCVPLLAEMTGAPPQHRPLEWWAETCASIGHELVRSTVQGAYLKHDKDLLRRMVYTRYFEK
B2: SGIV ORF122 (VP122), expressed by the infecting virus (protein, UniProt Q5YFE3 1-210)
chain: MAPGKRIVLKNNPRGGVWQGPIPNDKWVSEIMPWASDLGKRLLVLTEDVIAKLTWTHMGARVSDFASVRWPSVEDDYIWIDEPTEEWLRSRKVISWPVRVMWIKTSKEGKLPAQLDALAKKLSGFDDYAKLDTLAAKIERKRFRYPSAMAVVAKHHHKKYLERQGITAHSAFELVLKHWKPEKYFFACVDLNDWTENPAVAALVKKWGLE

Biological target: GFP-Atg5 (autophagy related gene 5)
Test: affinity purification with mass spectrometry; GS cells transfected with pEGFP-C1, pEGFP-LC3 or pEGFP-Atg5 and then infected with SGIV; whole cell lysates precipitated with GFP antibody; IP products analysed by RPLC-MS

Row | Binder | binding
1 | B1 | binds
2 | B2 | binds
